Measurements reported in PubChem BioAssay AID743454 (Peter MacCallum Cancer Centre, 2014)

Assay: 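Genes whose loss kills vorinostat-resistant colon cancer cells under vorinostat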 (primary screen)
System: human HCT116-VR colon cancer cells, selected for vorinostat resistance
Knock-down reagent: siRNA pool against human genes, 40 nM siRNA pool
Time to read-out: vorinostat for 24 h, read-out about 72 h after transfection
Treatment: vorinostat at 2.5 µM final
Detection: 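Two measures, CellTiter-Fluor viability and luminescent caspase 3/7 activity, each as fold change against same-plate mock wells, mean of duplicates, then screen-wide robust z-score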
Scale: viability robust z-score: higher = more viable cells than screen typical; caspase robust z-score: higher = more caspase 3/7 activity than screen typical
Call rule: 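Hits are knock-downs in viability class RV1/RV2 or caspase class CA1/CA2, excluding ones that killed cells in the no-drug cell-count arm; hits then retested with single siRNAs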
The whole screen tested about 18,000 reagents; shown is a part drawn at random. 450 of them (2.5%) were called active. 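Single biological run; no consistent viability z cut-off exists, so the class columns, not z-scores, define the calls.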

The opening 2 entries, to show the layout:
FAM216B (family with sequence similarity 216 member B) | viability hit class = no change; caspase hit class = no change; viability robust z-score = 2.14; caspase robust z-score = -0.32; outcome = inactive
CNN3 (calponin 3) | viability hit class = no change; caspase hit class = no change; viability robust z-score = -0.03; caspase robust z-score = -0.7; outcome = inactive

Results, repeating the preview:
FAM216B (family with sequence similarity 216 member B) | viability hit class = no change; caspase hit class = no change; viability robust z-score = 2.14; caspase robust z-score = -0.32; outcome = inactive
CNN3 (calponin 3) | viability hit class = no change; caspase hit class = no change; viability robust z-score = -0.03; caspase robust z-score = -0.7; outcome = inactive
LAMP3 (lysosome associated membrane protein 3) | viability hit class = no change; caspase hit class = no change; viability robust z-score = -0.32; caspase robust z-score = 0.46; outcome = inactive
CMTM2 (CKLF like MARVEL transmembrane domain containing 2) | viability hit class = no change; caspase hit class = no change; viability robust z-score = 0.22; caspase robust z-score = -0.54; outcome = inactive
IDNK (IDNK gluconokinase) | viability hit class = no change; caspase hit class = no change; viability robust z-score = -0.28; caspase robust z-score = -0.29; outcome = inactive
FAM161B (FAM161 centrosomal protein B) | viability hit class = no change; caspase hit class = no change; viability robust z-score = -1.71; caspase robust z-score = 0.04; outcome = inactive
CHTF18 (chromosome transmission fidelity factor 18) | viability hit class = no change; caspase hit class = no change; viability robust z-score = 1.18; caspase robust z-score = -0.7; outcome = inactive
IL1R2 (interleukin 1 receptor type 2) | viability hit class = no change; caspase hit class = no change; viability robust z-score = 1.49; caspase robust z-score = -0.15; outcome = inactive
SAP30 (Sin3A associated protein 30) | viability hit class = no change; caspase hit class = no change; viability robust z-score = 0.44; caspase robust z-score = -0.36; outcome = inactive
DNAI2 (dynein axonemal intermediate chain 2) | viability hit class = no change; caspase hit class = CA2 (caspase activation); viability robust z-score = -2.23; caspase robust z-score = 5.13; outcome = active
DAOA (D-amino acid oxidase activator) | viability hit class = no change; caspase hit class = no change; viability robust z-score = 0.64; caspase robust z-score = -0.66; outcome = inactive
RFC3 (replication factor C subunit 3) | viability hit class = no change; caspase hit class = no change; viability robust z-score = 0.52; caspase robust z-score = 0.5; outcome = inactive
LRRC36 (leucine rich repeat containing 36) | viability hit class = no change; caspase hit class = no change; viability robust z-score = -1.36; caspase robust z-score = -1.56; outcome = inactive
MAPKAP1 (MAPK associated protein 1) | viability hit class = no change; caspase hit class = no change; viability robust z-score = 0.66; caspase robust z-score = 0.36; outcome = inactive
EXOSC3 (exosome component 3) | viability hit class = no change; caspase hit class = no change; viability robust z-score = -0.76; caspase robust z-score = -0.64; outcome = inactive
CYTH1 (cytohesin 1) | viability hit class = no change; caspase hit class = no change; viability robust z-score = -0.12; caspase robust z-score = 1.2; outcome = inactive
ALG3 (ALG3 alpha-1,3- mannosyltransferase) | viability hit class = no change; caspase hit class = no change; viability robust z-score = 0.9; caspase robust z-score = 0.24; outcome = inactive
PRDX1 (peroxiredoxin 1) | viability hit class = no change; caspase hit class = no change; viability robust z-score = -1.03; caspase robust z-score = -0.4; outcome = inactive
PURA (purine rich element binding protein A) | viability hit class = no change; caspase hit class = no change; viability robust z-score = 0.12; caspase robust z-score = -0.58; outcome = inactive
ANOS1 (anosmin 1) | viability hit class = no change; caspase hit class = no change; viability robust z-score = 1.06; caspase robust z-score = 0.54; outcome = inactive
THAP3 (THAP domain containing 3) | viability hit class = RV2 (reduced viability); caspase hit class = no change; viability robust z-score = -2.98; caspase robust z-score = 1.76; outcome = active
